# Measured values from PubChem BioAssay AID2685 (National Center for Advancing Translational Sciences (NCATS), 2010).
# Some of the results follow. The main result of the screen is listed elsewhere. These columns were measured beside it and carry no call. Most of these compounds were active or inconclusive in the main read-out, so they are no random draw. The note in brackets gives the kind of curve behind each potency; many fits are weak.
# Test: qHTS Assay for Lipid Storage Modulators in Drosophila S3 Cells;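 for cell number change: cells counted by Cell Tracker Red CMTPX staining in the red channel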
# Settings: BODIPY lipid droplet fluorescence, 18-24 h; for cell number change: measured here: cell count max response, cells fed with added oleic acid
# Outline: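 Laser-scanning cytometry quantifies lipid droplet accumulation (500–530 nm total intensity; droplet/cell object ratio) in oleic acid-fed (400 uM added) Drosophila S3 cells treated with a concentration series. 20 uM Triacsin C defined 100% inhibition.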
# [1] = measured here: lipid fluorescence (Fed channel) AC50, cells fed with added oleic acid
# [2] = measured here: cell number channel AC50, cells fed with added oleic acid
Compound,cell number change [%],AC50 [1],AC50 [2]
O=C(N/N=C/c1ccc(OCc2ccccc2)cc1)c1cccs1,-24.5,"0.00517 µM [falling, full curve, poor fit]",
O=C1/C(=C\c2ccc(Br)o2)Cc2ccccc21,18.7,"0.731 µM [rising, single point]",
O=C(c1ccco1)N1CCN(CCOCCOc2cccc3ccccc23)CC1,22.7,"6.51 µM [falling, single point]",
O=C(COC(=O)CCN1C(=O)c2ccccc2C1=O)Nc1ccccc1[N+](=O)[O-],31.4,"29.1 µM [rising, partial curve, poor fit]",
Cc1ccc2nc(NC(=O)CCn3cccc3)sc2c1,36.9,,
COc1ccc(-c2nc(SC(C)C(=O)c3c(N)n(C)c(=O)n(C)c3=O)n[nH]2)cc1 (stereo not drawn),9.34,"36.6 µM [falling, partial curve, poor fit]",
CCSc1nc(C)c(C)c(=O)[nH]1,1.34,"13 µM [falling, partial curve]",
COc1cc(NC(=O)Cn2nnc(-c3ccncc3)n2)cc(OC)c1,20.1,"6.51 µM [rising, single point]","4.11 µM [rising, full curve, poor fit]"
CCC/C=N/NC(=O)c1cc(Br)ccc1O,-15.6,"1.03 µM [falling, full curve, poor fit]",
CN(C)CCCN(C(=O)c1ccc(C(=O)c2ccccc2)cc1)c1nc2ccc(F)cc2s1,10.4,,
O=C(NCCc1ccccc1)C1CCC(CNc2nc(=S)[nH]c3ccccc23)CC1 (stereo not drawn),72.2,"29.1 µM [rising, single point]","18.4 µM [rising, single point]"
O=C(CCC1CCCCC1)Nc1cccnc1,32.9,,"0.731 µM [rising, full curve, poor fit]"
COc1ccc(-c2cc(C3CCN(c4ncccc4[N+](=O)[O-])CC3)[nH]n2)cc1,,"29.1 µM [rising, single point]","6.51 µM [rising, single point]"
Cc1ccc(S(=O)(=O)N(Cc2ccccc2)c2ccccn2)cc1[N+](=O)[O-],10.1,"0.164 µM [rising, full curve, poor fit]",
COc1ccc(N(CC(=O)NCCc2ccccc2)C(=O)CCC(=O)Nc2nccs2)cc1,7.94,"0.651 µM [falling, partial curve, poor fit]",
COc1ccc(C(c2nnnn2C(C)(C)C)N2CCN(C)CC2)cc1OC (stereo not drawn),-27.8,"18.4 µM [falling, partial curve]","4.11 µM [falling, full curve, poor fit]"
COc1ccc(CNS(=O)(=O)c2ccc(-c3ccc(=O)[nH]n3)s2)cc1OC,-28.1,"23.1 µM [falling, single point]",
N#CCCSc1ccccc1NC(=O)c1cc(=O)c2ccccc2o1,34,,"10.3 µM [rising, single point]"
COc1ccc(CCn2c(=N)c(S(=O)(=O)c3ccc(C)cc3)cc3c(=O)n4ccccc4nc32)cc1,-2.59,"0.651 µM [rising, single point]",

Compound,cell number change [%],AC50 [1],AC50 [2]
OCC[C@H]1C[C@@H](O)[C@H](O)[C@]2(Cc3ccccc3O2)O1,-8.8,,
CCCCSc1nnc2c(n1)[nH]c1ccccc12,5.16,"29.1 µM [rising, single point]",
COc1cc(/C=C2\C(=N)N3N=C(S(=O)(=O)CC(C)C)SC3=NC2=O)ccc1OC(=O)c1ccco1,-22.6,"18.4 µM [falling, single point]",
CCOc1c(C)cnc2c1c(=O)n(Cc1ccccc1Cl)c(=O)n2C,18.7,,
Cc1cccc(C)c1OCCN1CCOCC1,22.3,,
Cc1nc2sccn2c1-c1csc(NCc2ccccc2)n1,,"0.651 µM [rising, single point]",
C/C(=N\OCC(=O)N/N=C/c1ccccc1)c1cccs1,13.9,,
N#Cc1nc(-c2ccc(OCc3ccccc3)cc2)oc1NCCN1CCOCC1,-3.68,"5.8 µM [rising, partial curve, poor fit]","0.164 µM [rising, partial curve, poor fit]"
CCN(CC)C(=O)CSc1nc2c(sc(=S)n2-c2ccccc2)c(=O)n1-c1ccccc1OC,22.2,,
Cc1cc(C)c(S(=O)(=O)N2CCN(C(=O)c3ccc(-n4cncn4)c([N+](=O)[O-])c3)CC2)c(C)c1,-30.9,,"8.2 µM [falling, partial curve, poor fit]"
CCCNC(=O)COC(=O)/C=C/c1ccc2c(c1)OCO2,-5.6,,"0.092 µM [rising, partial curve, poor fit]"
CCn1c(COc2ccc(Cl)cc2)nnc1SCc1ccc(C#N)cc1,,"3.66 µM [rising, partial curve]","5.17 µM [rising, partial curve, poor fit]"
O=C(CSc1nnnn1-c1ccccc1)CSc1nnnn1-c1ccccc1,124,"29.1 µM [rising, single point]","18.4 µM [rising, single point]"
O=c1cc(N2CCOCC2)[nH]c(=O)n1-c1ccc(Cl)cc1,10,"7.31 µM [rising, partial curve]",
O=C(OCc1nc2ccccc2s1)c1cnccn1,2.14,"29.1 µM [rising, single point]",
O=C(Nc1ccnn1C1CCN(CC(O)CO)CC1)C1CCCC1 (stereo not drawn),-0.578,,
COc1ccc(S(=O)(=O)Nc2ccc3c(c2)COC3=O)cc1OC,-15.3,,"0.13 µM [falling, full curve, poor fit]"
CC(C)(C)C1CCc2c(sc(NC(=O)CSc3ncn[nH]3)c2C#N)C1 (stereo not drawn),-61.9,"20.6 µM [falling, single point]","29.1 µM [falling, single point]"
Cc1ccc2nc(SCC(=O)NCc3ccc(F)cc3)[nH]c2c1,-1.8,"9.2 µM [rising, partial curve]",

# A portion from the list above, as a working copy:
Compound,cell number change [%],AC50 [1],AC50 [2]
O=c1cc(N2CCOCC2)[nH]c(=O)n1-c1ccc(Cl)cc1,10,"7.31 µM [rising, partial curve]",
O=C(OCc1nc2ccccc2s1)c1cnccn1,2.14,"29.1 µM [rising, single point]",
